In assay [1] the target is His-sfGFP-MinD (E. coli MG1655) (UniProt P0AEZ3). Briefly: pull-down; His-tagged Min protein held on cOmplete His-Tag purification (Ni-NTA) resin; 9 µM MinE-mCherry-His, 3 µM His-sfGFP-MinD or 6 µM thrombin-treated MinD^D40AΔ10, with or without 3 µM BSA; RE buffer, 30 min, room temperature; washed with 20 mM imidazole, eluted with 250 mM imidazole; SDS-PAGE and CBB staining; both purified.

Protein sequences, listed by entry. Tags and fused reporters are not part of them. Residues count along the entry.
UniProt P0AEZ3: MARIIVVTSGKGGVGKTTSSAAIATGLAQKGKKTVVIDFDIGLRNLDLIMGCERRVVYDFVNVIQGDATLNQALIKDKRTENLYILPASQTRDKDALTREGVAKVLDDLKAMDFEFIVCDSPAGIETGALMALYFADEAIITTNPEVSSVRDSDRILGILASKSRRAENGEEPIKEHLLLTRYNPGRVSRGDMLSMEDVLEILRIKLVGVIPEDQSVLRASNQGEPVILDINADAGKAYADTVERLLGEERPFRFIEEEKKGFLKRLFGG
UniProt P02769, residues 25-607: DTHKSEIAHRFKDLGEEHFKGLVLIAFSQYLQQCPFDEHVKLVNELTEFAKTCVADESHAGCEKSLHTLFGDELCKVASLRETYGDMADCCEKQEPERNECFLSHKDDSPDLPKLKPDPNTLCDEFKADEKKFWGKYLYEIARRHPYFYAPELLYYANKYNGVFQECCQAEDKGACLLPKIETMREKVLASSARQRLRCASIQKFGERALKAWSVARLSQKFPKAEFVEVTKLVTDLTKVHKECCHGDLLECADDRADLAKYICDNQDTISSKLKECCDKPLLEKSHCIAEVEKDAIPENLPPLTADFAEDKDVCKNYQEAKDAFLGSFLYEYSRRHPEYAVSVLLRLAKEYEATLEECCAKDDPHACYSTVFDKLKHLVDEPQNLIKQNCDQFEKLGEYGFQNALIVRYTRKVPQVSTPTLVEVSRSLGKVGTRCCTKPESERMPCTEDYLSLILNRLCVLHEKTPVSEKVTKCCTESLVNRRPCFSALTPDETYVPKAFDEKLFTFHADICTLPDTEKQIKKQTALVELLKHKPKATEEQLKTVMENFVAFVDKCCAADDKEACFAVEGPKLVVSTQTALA

Assay [2] concerns the target MinE-mCherry-His (E. coli K12 MG1655) (UniProt P0A734). The description is as above.

No constants are given. Whether binding was seen depends on the method and setting.

As to BSA (from UniProt P02769 25-607), the binding entry in assay [1] and in assay [2] was “no binding (tested: 3 µM BSA)” throughout.

Source of the values: PMC6667215, “Cell-sized confinement controls generation and stability of a protein wave for spatiotemporal regulation in cells” (eLife, 2019).
